Data as given in PubChem BioAssay AID1224828 (NIAID, 2016).

Test: 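Find genes required for NF-kappaB p65 moving into the nucleus after LPS in mouse macrophages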 (primary screen)
System: mouse RAW264.7 G9 macrophage reporter cells (GFP-p65, Tnf promoter-mCherry)
Reagent: siRNA pool against mouse genes, 100 nM
Timing: 2 days siRNA transfection, then 40 min LPS before fixation
Challenge: LPS (Salmonella minnesota R595) at 10 ng/ml
Read-out: 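Microscopy ratio of nuclear to perinuclear-ring GFP-p65 signal, scaled to the plate median; gene score is the average of two replicate robust z-scores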
Direction: p65 translocation robust z-score: higher = more nuclear NF-kappaB p65 after LPS than the plate median; nuclear/cytoplasmic p65 ratio: higher = more nuclear NF-kappaB p65
Call rule: 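Active if robust z is above 3.3 (negative regulators) or below -1.56, the Tlr4 control median (positive regulators); activity score 50 or more; control wells not called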
Calls: active = hit (p65 shift raised or lowered); inactive = no clear change
In all, the deposit lists about 17,000 reagents; shown is an unselected part. Of all reagents, 762 (4.5%) were called active. 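Active calls include both raised and lowered p65 entry, mostly lowered; wells with fewer than 50 cells lack a z-score.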 Raw values vary from plate to plate and are shown uncorrected. Entries without a mark were called inactive.

With knock-down of Fam114a2 (GeneID 67726) the results were nuclear/cytoplasmic p65 ratio, rep 1 = 1.16; nuclear/cytoplasmic p65 ratio, rep 2 = 1.18; low cell count flag fewer than 50 cells per well; well left out of scoring.
After knock-down of Nfkbiz (GeneID 80859), the record shows p65 translocation robust z-score 1.02; nuclear/cytoplasmic p65 ratio, rep 1 = 1.49; nuclear/cytoplasmic p65 ratio, rep 2 = 1.69; low cell count flag enough cells to score.
After knock-down of Vmn2r7 (GeneID 319217), the record shows nuclear/cytoplasmic p65 ratio, rep 1 = 1.61; nuclear/cytoplasmic p65 ratio, rep 2 = 1.69; low cell count flag fewer than 50 cells per well; well left out of scoring.
With knock-down of Cmya5 (GeneID 76469), the record shows p65 translocation robust z-score 0.02; nuclear/cytoplasmic p65 ratio, rep 1 = 1.36; nuclear/cytoplasmic p65 ratio, rep 2 = 1.62; low cell count flag enough cells to score.
Slc6a11 (GeneID 243616) gave p65 translocation robust z-score 0.49; nuclear/cytoplasmic p65 ratio, rep 1 = 1.72; nuclear/cytoplasmic p65 ratio, rep 2 = 1.48; low cell count flag enough cells to score.
After knock-down of Fam3b (GeneID 52793), the screen gave p65 translocation robust z-score -0.36; nuclear/cytoplasmic p65 ratio, rep 1 = 1.36; nuclear/cytoplasmic p65 ratio, rep 2 = 1.23; low cell count flag enough cells to score.
Phf14 (GeneID 75725) scored p65 translocation robust z-score 0.09; nuclear/cytoplasmic p65 ratio, rep 1 = 1.41; nuclear/cytoplasmic p65 ratio, rep 2 = 1.32; low cell count flag enough cells to score.
Depletion of Drc2 (GeneID 105833) came out at: p65 translocation robust z-score -0.99; nuclear/cytoplasmic p65 ratio, rep 1 = 1.21; nuclear/cytoplasmic p65 ratio, rep 2 = 1.36; low cell count flag enough cells to score.
Mup1 (GeneID 17840) scored p65 translocation robust z-score 0.72; nuclear/cytoplasmic p65 ratio, rep 1 = 1.86; nuclear/cytoplasmic p65 ratio, rep 2 = 1.74; low cell count flag enough cells to score.
After knock-down of Mcph1 (GeneID 244329), the record shows p65 translocation robust z-score 1.37; nuclear/cytoplasmic p65 ratio, rep 1 = 1.67; nuclear/cytoplasmic p65 ratio, rep 2 = 1.55; low cell count flag enough cells to score.
Knock-down of Dhx16 (GeneID 69192) resulted in: p65 translocation robust z-score 0.24; nuclear/cytoplasmic p65 ratio, rep 1 = 1.57; nuclear/cytoplasmic p65 ratio, rep 2 = 1.36; low cell count flag enough cells to score.
Nts (GeneID 67405) gave p65 translocation robust z-score -0.89; nuclear/cytoplasmic p65 ratio, rep 1 = 1.34; nuclear/cytoplasmic p65 ratio, rep 2 = 1.29; low cell count flag enough cells to score.
Against Hddc3 (GeneID 68695), the entry reads p65 translocation robust z-score -1.73 (active); nuclear/cytoplasmic p65 ratio, rep 1 = 1.31; nuclear/cytoplasmic p65 ratio, rep 2 = 1.2; low cell count flag enough cells to score.
Against Kcnj11 (GeneID 16514) the deposit lists p65 translocation robust z-score 0.59; nuclear/cytoplasmic p65 ratio, rep 1 = 1.52; nuclear/cytoplasmic p65 ratio, rep 2 = 1.49; low cell count flag enough cells to score.
With knock-down of Cd200r2 (GeneID 271375), the screen gave p65 translocation robust z-score 1.22; nuclear/cytoplasmic p65 ratio, rep 1 = 1.93; nuclear/cytoplasmic p65 ratio, rep 2 = 1.69; low cell count flag enough cells to score.
After knock-down of Aldh3b3 (GeneID 73458), the screen gave p65 translocation robust z-score -0.84; nuclear/cytoplasmic p65 ratio, rep 1 = 1.35; nuclear/cytoplasmic p65 ratio, rep 2 = 1.24; low cell count flag enough cells to score.
With knock-down of Fbxo34 (GeneID 78938) the results were p65 translocation robust z-score 0.49; nuclear/cytoplasmic p65 ratio, rep 1 = 1.65; nuclear/cytoplasmic p65 ratio, rep 2 = 1.55; low cell count flag enough cells to score.
For Fos (GeneID 14281) the deposit lists nuclear/cytoplasmic p65 ratio, rep 1 = 1.27; nuclear/cytoplasmic p65 ratio, rep 2 = 1.23; low cell count flag fewer than 50 cells per well; well left out of scoring.
Against Cyp2a12 (GeneID 13085), the values are p65 translocation robust z-score 0.27; nuclear/cytoplasmic p65 ratio, rep 1 = 1.67; nuclear/cytoplasmic p65 ratio, rep 2 = 1.76; low cell count flag enough cells to score.
Silencing of Zfp748 (GeneID 212276) came out at: nuclear/cytoplasmic p65 ratio, rep 1 = 1.07; nuclear/cytoplasmic p65 ratio, rep 2 = 1.47; low cell count flag fewer than 50 cells per well; well left out of scoring.
Knock-down of Srsf3 (GeneID 20383) resulted in: p65 translocation robust z-score 2.89; nuclear/cytoplasmic p65 ratio, rep 1 = 2.46; nuclear/cytoplasmic p65 ratio, rep 2 = 1.48; low cell count flag enough cells to score.
